{"sequences": {"note": "Protein sequences, listed by entry. Tags and fused reporters are not part of them. Lines headed by an entry give the natural chain unless they say otherwise; changes in a name come on top.", "UniProt Q03431": "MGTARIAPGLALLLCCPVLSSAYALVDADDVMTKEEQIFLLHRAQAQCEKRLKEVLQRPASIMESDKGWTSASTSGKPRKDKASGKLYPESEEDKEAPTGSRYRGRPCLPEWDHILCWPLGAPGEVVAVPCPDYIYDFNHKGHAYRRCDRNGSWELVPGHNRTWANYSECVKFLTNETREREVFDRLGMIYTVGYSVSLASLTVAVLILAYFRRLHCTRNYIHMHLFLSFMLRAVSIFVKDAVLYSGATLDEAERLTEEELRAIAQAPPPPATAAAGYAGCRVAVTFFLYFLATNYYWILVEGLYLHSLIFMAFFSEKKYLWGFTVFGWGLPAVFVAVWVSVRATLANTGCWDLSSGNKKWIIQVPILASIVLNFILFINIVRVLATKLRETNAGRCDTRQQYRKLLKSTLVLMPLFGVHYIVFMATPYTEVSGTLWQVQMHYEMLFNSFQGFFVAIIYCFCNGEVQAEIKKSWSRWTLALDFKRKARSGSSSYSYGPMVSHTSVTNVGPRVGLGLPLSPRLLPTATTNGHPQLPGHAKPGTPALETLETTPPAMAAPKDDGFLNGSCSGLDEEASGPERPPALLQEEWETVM"}, "source": "PubChem BioAssay AID743266", "about": "(National Center for Advancing Translational Sciences (NCATS), 2014)", "note": "In all, about 410,000 compounds went through this assay and about 310 (0.076%) were called active. The inconclusive results got no clear call from the source; some entries with a clear call stand among them for comparison. Calls come from the whole dose curve; as a rule, active = well fitted activation curve with a large enough effect; inconclusive = small, poorly fitted or top-dose-only effect, or another doubt; inactive = no such curve, though single readings can be large or run the other way. Potencies of inconclusive entries are doubtful fits and often do not repeat. Potency is the fitted concentration of half-maximal effect."}
{"molecular_target": "Parathyroid hormone/parathyroid hormone-related peptide receptor (Homo sapiens) (UniProt Q03431)", "test": "qHTS for PTHR1 Agonists: Primary Screen; note: nearly all actives have a fitted effect of over 55% in size", "settings": "HEK293 GP2 PTHR1 cells, GloSensor cAMP luminescence, 1 h; activation: at 115 µM (top of the series) unless noted; series mostly up to 115 µM", "how_it_was_run": "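HEK-293-derived GP2 cells expressing PTHR1 and a GloSensor cAMP reporter, 3,000/well, plated overnight, given luciferin plus IBMX (each 0.5 mM as added) for 1 h at 37 °C, then compound for 1 h at 37 °C. Luminescence was read after 15 min at room temperature.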"}
{"smiles": "Cn1c(=O)[nH]c(=O)c2c1ncn2CCN1CCOCC1", "activation": "inconclusive: -12.2% [activator] [at 57.5 µM]"}
{"smiles": "COc1ccc(OC)c(C(C)NC(C)=O)c1", "note": "(stereo not drawn)", "Potency": "inconclusive: 20 µM [activator, single point]"}
{"smiles": "COC(=O)c1cnc[nH]1", "activation": "inconclusive: 33.8% [activator]"}
{"smiles": "CCCn1c(CN2CCCCC2C)nc2c1c(=O)n(C)c(=O)n2C", "note": "(stereo not drawn)", "outcome": "inactive"}
{"smiles": "CCNC(=S)NNC(=O)c1cc(C2CC2)nc2ccccc12", "activation": "inconclusive: 32.1% [activator] [at 57.5 µM]"}
{"smiles": "Cc1cccc(OCCC(=O)NCC(c2ccccc2)N(C)C)c1", "note": "(stereo not drawn)", "activation": "inactive: -7.88% [at 57.5 µM]"}
{"smiles": "CCc1nnc(NC(=O)Cc2ccc(S(=O)(=O)N3CCCCC3)cc2)s1", "Potency": "inconclusive: 126 µM [activator, single point]"}
{"smiles": "Cc1ccc(-n2c(=O)c3oc4ccccc4c3n(Cc3cccc(F)c3)c2=O)cc1C", "Potency": "inconclusive: 50.1 µM [activator, partial curve, poor fit]"}
{"smiles": "CC(C)[C@H](NC(=O)[C@@H]1Cc2ccccc2CN1C(=O)OC(C)(C)C)C(=O)NC1CCCC1", "activation": "inactive: -16.4%"}
{"smiles": "CC(=O)Nc1ccc(-c2cc3ccccc3o2)cc1", "activation": "inconclusive: 41.5% [activator]"}
{"smiles": "Cc1ccc(CNC(=O)c2c(Nc3c(C)cccc3C)sc(C(=O)c3ccccc3)c2N)cc1", "activation": "inactive: -21.8%"}
{"smiles": "COP(=O)(CN(Cc1ccccc1)C(=S)Nc1c(C)cccc1C)OC", "Potency": "inconclusive: 56.2 µM [activator, partial curve, poor fit]"}
{"smiles": "CCOC(=O)c1ccccc1NC(=O)c1c(C)oc2ncnc(N3CCOCC3)c12", "activation": "inconclusive: 46% [activator]"}
{"smiles": "CCN(CC)c1ccc(/C=c2/sc3nnc(-c4ccccc4C)n3c2=O)cc1", "Potency": "inconclusive: 5.01 µM [activator, full curve]"}
{"smiles": "Cc1ccc(C(=O)NCCNC(=O)c2ccc(F)cc2)cn1", "activation": "inconclusive: -33.8% [activator]"}
{"smiles": "CCc1cccc(CC)c1NC(=O)COC(=O)c1ccc2c(c1)S(=O)(=O)c1ccccc1C2=O", "Potency": "inconclusive: 50.1 µM [activator, partial curve, poor fit]"}
{"smiles": "CC(C)C[C@H](NC(=O)c1nc[nH]c1C(=O)N1CCc2ccccc2C1)C(=O)OCc1ccccc1", "Potency": "inconclusive: 17.8 µM [activator, partial curve]"}
{"smiles": "CC1Sc2ccccc2N(CC(=O)N(C(C)C)C(C)C)C1=O", "note": "(stereo not drawn)", "activation": "inactive: -18.5%"}
{"smiles": "NC(=O)CSc1nnnn1CC(CC(=O)O)c1ccccc1", "note": "(stereo not drawn)", "Potency": "inconclusive: 7.94 µM [activator, partial curve, poor fit]"}
{"smiles": "CCCNC(=O)c1c(O)c2cccc3c2n(c1=O)CCC3", "Potency": "inconclusive: 89.1 µM [activator, partial curve, poor fit]"}
{"smiles": "COc1ccc(OCC(=O)Nc2c(C(=O)N(CCN(C)C)Cc3ccco3)oc3ccccc23)cc1", "Potency": "inconclusive: 31.6 µM [activator, partial curve, poor fit]"}
{"smiles": "COc1ccccc1NS(=O)(=O)c1cn(C)c(C)n1", "Potency": "inconclusive: 2.51 µM [activator, partial curve, poor fit]"}
{"smiles": "Cc1cc(=O)oc2cc(OCC(=O)OCC(=O)Nc3ccccc3Br)ccc12", "Potency": "inconclusive: 10 µM [activator, partial curve, poor fit]"}
{"smiles": "Nc1nc(N)nc(-c2cc(F)ccc2O)n1", "Potency": "inconclusive: 126 µM [activator, single point]"}
{"smiles": "CC(=O)CC(=O)Nc1ccccc1NC(C)=O", "Potency": "inconclusive: 31.6 µM [activator, single point]"}
{"smiles": "CCN(CC)CCNC(=S)NC(=O)c1cn(-c2ccccc2)nc1-c1ccc(OC)cc1", "activation": "inactive: 14.4%"}
{"smiles": "COc1ccc(-c2c(C)c3ccc(O)c(CN4CCOCC4)c3oc2=O)cc1", "activation": "inconclusive: -35.9% [activator]"}
{"smiles": "Cc1cc(C)cc(NC(=S)/N=C(\\N)Nc2nc(C)c3ccccc3n2)c1", "activation": "inactive: -10.6%"}
{"smiles": "Cc1cccc(-c2nc3c4ccccc4nc(N4CCN(c5ccccc5F)CC4)n3n2)c1", "activation": "inconclusive: 75.4% [activator]"}
{"smiles": "CCC1CCCCN1CCCNC(=O)c1[nH]c2ccccc2c1Sc1ccc(Cl)cc1", "note": "(stereo not drawn)", "activation": "inconclusive: 34.1% [activator]"}
{"smiles": "COc1cccc(CNC(=O)C(CC(C)C)NS(=O)(=O)c2ccc3c(c2)oc(=O)n3C)c1", "note": "(stereo not drawn)", "activation": "inactive: -18.7%"}
{"smiles": "O=C(OCCOc1cccc(Cl)c1)C1CCN(S(=O)(=O)c2ccccc2)CC1", "outcome": "inactive"}
{"smiles": "COc1cccc(C2NC(=O)c3n[nH]c(-c4cccs4)c32)c1", "note": "(stereo not drawn)", "activation": "inconclusive: -39% [activator]"}
{"smiles": "COc1ccc(C(=O)CC(CC(=O)c2ccc(OC)cc2)C(=O)O)cc1", "Potency": "inconclusive: 100 µM [activator, partial curve, poor fit]"}
{"smiles": "COc1cc(NC(=O)NCC2CCN(Cc3ccccc3Cl)CC2)cc(OC)c1OC", "Potency": "inconclusive: 126 µM [activator, single point]"}
{"smiles": "CSc1ccccc1NC(=O)Nc1ccc(Cl)cc1", "outcome": "inactive [at 57.5 µM]"}
{"smiles": "COc1ccccc1-c1nc(C(N)=O)c2[nH]c(=O)n(-c3cccc(C)c3)c2n1", "activation": "inconclusive: -1.53% [activator] [at 57.5 µM]"}
{"smiles": "CC(C)OC(=O)Cn1cc(C#N)c2ccccc21", "activation": "inconclusive: -66.7% [activator]"}
{"smiles": "O=C(NC1CCCCC1)C(c1ccco1)N(CCc1ccccc1)C(=O)C(F)(F)F", "note": "(stereo not drawn)", "activation": "inconclusive: 60% [activator] [at 57.5 µM]"}
{"smiles": "COc1cccc(CC2(CO)CCCN(Cc3[nH]c4ccc(C)cc4c3C)C2)c1", "note": "(stereo not drawn)", "Potency": "inconclusive: 31.6 µM [activator, partial curve, poor fit]"}
{"smiles": "COCCN(C(=O)CCC(=O)Nc1cc(C)on1)C(C(=O)NC1CCCC1)c1ccccc1F", "note": "(stereo not drawn)", "activation": "inconclusive: 54.5% [activator]"}
{"smiles": "NS(=O)(=O)c1ccc(NC(=O)c2ccc(-c3ccccc3)cc2)cc1", "activation": "inactive: 6.01%"}
{"smiles": "CNc1nc(Sc2ccc(C)cc2)cc(C(F)(F)F)n1", "Potency": "inconclusive: 35.5 µM [activator, single point]"}
{"smiles": "CCOC(=O)Cn1c(=O)n(C2CCCCC2)c2nc(-c3ccc(OCC)cc3)nc(C(N)=O)c21", "Potency": "inconclusive: 39.8 µM [activator, partial curve, poor fit]"}
{"smiles": "COc1cc(NC(=S)NCCN2CCOCC2)cc(OC)c1OC", "activation": "inconclusive: 30.8% [activator]"}
{"smiles": "COCCCN1C(=O)C(=O)/C(=C(/O)c2ccccc2)C1c1ccc2c(c1)OCO2", "note": "(stereo not drawn)", "outcome": "inactive [at 57.5 µM]"}
{"smiles": "O=C(O)C1=C[C@H](c2cccs2)C[C@H](OCCCCO)O1", "Potency": "inconclusive: 22.4 µM [activator, single point]"}
{"smiles": "Cc1nnc(SCC(=O)NNC(=O)c2ccc(Br)cc2)n1C", "Potency": "inconclusive: 44.7 µM [activator, partial curve, poor fit]"}
{"smiles": "O=C(N[C@@H](Cc1ccccc1)C(=O)O)c1c(F)c(F)c(F)c(F)c1F", "Potency": "inconclusive: 89.1 µM [activator, partial curve, poor fit]"}
{"smiles": "COc1ccc(C2C=C(C)Nc3nc4ccccc4n32)cc1", "note": "(stereo not drawn)", "Potency": "inconclusive: 1.78 µM [activator, partial curve, poor fit]"}
{"smiles": "O=C(NC1CCC(C(=O)O)CC1)OCc1ccccc1", "note": "(stereo not drawn)", "Potency": "inconclusive: 5.62 µM [activator, single point]"}
{"smiles": "CCOC(=O)CC1=C(C(=O)OCC)C(c2cccnc2)C(C#N)=C(N)O1", "note": "(stereo not drawn)", "outcome": "inactive [at 57.5 µM]"}
{"smiles": "CC(C)(C)C(=O)Nc1c2c(nn1-c1cccc(Cl)c1)CS(=O)(=O)C2", "Potency": "inconclusive: 50.1 µM [activator, partial curve, poor fit]"}
